Source: the supplement of paper PMC5949888
Most values lie at the floor of the assay. Slopes are relative: functional sequences can read slightly below zero.

Tested on: Saccharomyces cerevisiae PS128 hsf1 delta, HSF1(1-493) fusion
Assay: growth estimate (transactivation domain function in HSF1 fusion, heat-shock survival) (a.u. (slope of normalised read count over time)); higher = stronger growth at 37°C, i.e. more transactivation activity
Details: library: random library

| Substance | growth estimate |
| --- | --- |
| GVQSRALG | < -0.25 |
| DQKNTSRAGPWNDHAPRDER | < -0.25 |
| CLDTSDVFVGAIQNSS | < -0.25 |
| RKYRATVSLVVS | -0.243 |
| VISGATS | < -0.25 |
| TVWAHWNLCGSPSSLSY | < -0.25 |
| KNGPTTRDAEPLRG | < -0.25 |
| AKKGPDSFSGWDTDFKYCRC | < -0.25 |
| GGVAYDFD | < -0.25 |
| TPNGSVRGILAPEWEAPTQL | < -0.25 |
| SDVM | < -0.25 |
| ALWTYRFDGHQREHVDWNCK | < -0.25 |
| VLWVEVSTSIQNKILG | < -0.25 |
| PRVIDLQE | < -0.25 |
| VLSGPGSTAKNMGPKDMRRQ | < -0.25 |
| LGVSSKRRTSVTDLTLIEEL | < -0.25 |
| PPLVHKDSRESKSLAGYSCL | < -0.25 |
| RTGVTVNRFQMEDLDLPRPE | < -0.25 |
| CEPGVHQRL | < -0.25 |
| KSSR | < -0.25 |
| LPCSYWRRD | < -0.25 |
| LALSN | < -0.25 |
| YTAGATGNGSD | < -0.25 |
| HRPTIMLMNIH | < -0.25 |
| TSEPQRLTILRKLRLCGGHE | < -0.25 |

| Substance | growth estimate |
| --- | --- |
| TRRGGGNRALNTQGGLLRRV | < -0.25 |
| NDLMQESTDESEEQ | < -0.25 |
| DRISDARHWLSYKPPLRRPA | < -0.25 |
| AFSRGGRCSGIHQPVLLRSM | < -0.25 |
| TVWGKGRKHS | < -0.25 |
| CLVAGQR | < -0.25 |
| LRQAIR | -0.196 |
| AVRNTSLSGLSSNSTGPGRP | < -0.25 |
| ISWWIACDR | < -0.25 |
| SVKSPLPRSPP | < -0.25 |
| RTASGLC | < -0.25 |
| STERTVGRIRLEESLLFYPL | 0.023 |
| AMGWAFELTLLPGGTCFLPL | -0.248 |
| PWRFEDYSSGRPVRAWR | < -0.25 |
| SNSGSEVHRKLTVILA | < -0.25 |
| DISKSRKRTTWDACRPVVPA | < -0.25 |
| PTP | < -0.25 |
| AYP | < -0.25 |
| RSGGWEHLGSRWFNGEGMWS | < -0.25 |
| GSNKEELGTLMAVNFPPKGT | < -0.25 |
| RGVSERREAETLIYWAIVRL | < -0.25 |
| FENCPIDSIRNPRLCLCQCG | < -0.25 |
| PGLESTS | < -0.25 |
| IVARPRTLSWKSTCEGPDSS | < -0.25 |
| GTVTVYRASLTYEDTSETHT | < -0.25 |

Some of the entries so far, with bars between the fields.
Substance | growth estimate
AYP | < -0.25
RSGGWEHLGSRWFNGEGMWS | < -0.25
GSNKEELGTLMAVNFPPKGT | < -0.25

(next part)

| Substance | growth estimate |
| --- | --- |
| LEFQRFRAGR | < -0.25 |
| PVLAVKYCLD | < -0.25 |
| HWHTSRGQKSLIGRKYLR | -0.247 |
| FTRMTALTRREVSVTGVHQT | < -0.25 |
| NGKFSLPALLGG | < -0.25 |
| SFRERK | -0.176 |
| NVGLCHGF | < -0.25 |
| LVKWTWPADFARRLVVKLAT | < -0.25 |
| AMMSPF | < -0.25 |
| PYFTLKLREVSSHVSHALGF | < -0.25 |
| CLALALPCHGRTLHCYNVSE | < -0.25 |
| GNDVLVSPRLPKCSRPRTFA | < -0.25 |
| PPFVNC | < -0.25 |
| NLPKGEFGGPGVRGGLSSTA | < -0.25 |
| SVRYTSGSISYFVELNCLDC | < -0.25 |
| TTT | < -0.25 |
| YATTGVG | < -0.25 |
| ARGRLHGTRGDEKEFDGRKQ | < -0.25 |
| GRHVVSRLDSPTIIDVSSCR | < -0.25 |
| YMFWVSLTESQGNAWIVSRL | < -0.25 |
| IPSNIHFPLVQMGYRASKSG | < -0.25 |
| VPYGPQRSSDSHPVARA | < -0.25 |
| SSRKLQFHQSFNGRLASFIP | < -0.25 |
